In patent EP1988102A1 one finds binding data, which are given here for 1 substance.

Amino acid sequences for entries named in this document (tags omitted). Residues count along the entry.
UniProt P16234, residues 24-524: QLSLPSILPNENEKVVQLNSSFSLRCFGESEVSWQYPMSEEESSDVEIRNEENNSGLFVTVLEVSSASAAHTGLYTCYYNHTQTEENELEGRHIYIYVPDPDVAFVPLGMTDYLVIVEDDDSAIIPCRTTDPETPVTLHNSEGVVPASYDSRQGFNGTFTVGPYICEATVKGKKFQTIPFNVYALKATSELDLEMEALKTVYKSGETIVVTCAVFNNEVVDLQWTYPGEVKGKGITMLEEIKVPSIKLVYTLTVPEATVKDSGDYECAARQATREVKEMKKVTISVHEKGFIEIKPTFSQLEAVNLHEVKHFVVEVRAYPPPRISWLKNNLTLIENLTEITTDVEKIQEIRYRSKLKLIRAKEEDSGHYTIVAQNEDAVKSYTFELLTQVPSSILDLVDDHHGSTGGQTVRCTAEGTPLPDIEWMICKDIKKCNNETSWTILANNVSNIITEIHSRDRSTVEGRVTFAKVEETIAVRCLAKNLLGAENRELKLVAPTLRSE

This test deals with PDGF receptor α (R&D Systems) (UniProt P16234). Put plainly: 125I-zvegf3 (10 ng/mL) bound to cultured cells on ice, with or without unlabelled zvegf3, VEGF, PDGF-BB, PDGF receptor α or PDGF receptor β-Fc; gamma counting.

No constants are given. Whether binding was seen depends on the method and setting. Some entries that bind do so weakly or less than the wild type.

Consider “recombinant zvegf3 growth factor domain protein (from UniProt Q9NRA1 235-345) (ligand)”, for which the binding entry is on record as “binds”.
